Data reported in publication PMC4351203.
Positions count from the first letter of the chain named. These are yes or no findings as the source states them, for the method shown. Binding seen in cells or lysates may run through a third protein. Binding calls can cover weak binding; strength is not graded here. For some assays here: Tags and fused reporters may be left off the sequences shown.

Chains of the proteins cited; added tags and fusions are not shown.
UniProt Q62219: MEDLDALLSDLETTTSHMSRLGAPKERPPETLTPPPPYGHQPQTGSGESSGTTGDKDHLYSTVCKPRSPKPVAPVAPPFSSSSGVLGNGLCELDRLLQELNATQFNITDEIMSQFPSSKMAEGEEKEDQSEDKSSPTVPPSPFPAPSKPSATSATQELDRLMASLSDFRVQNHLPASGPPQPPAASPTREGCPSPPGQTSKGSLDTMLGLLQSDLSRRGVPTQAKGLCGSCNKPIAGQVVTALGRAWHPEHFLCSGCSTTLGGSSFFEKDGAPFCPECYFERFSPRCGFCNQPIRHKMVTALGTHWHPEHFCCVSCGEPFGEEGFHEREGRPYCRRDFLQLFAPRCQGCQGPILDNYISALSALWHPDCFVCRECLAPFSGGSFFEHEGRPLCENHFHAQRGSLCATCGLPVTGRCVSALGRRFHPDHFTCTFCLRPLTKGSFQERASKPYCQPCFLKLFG

How the values were obtained:
Assay in all cases: co-IP; extracts of HEK293T cells co-expressing FLAG-tagged Git1 proteins with a Myc-tagged partner or YFP-fused Git1; cells treated with 100 μM pervanadate or vehicle for 15 min; anti-FLAG beads; eluted by boiling in SDS sample buffer; Western blot with anti-Myc or anti-GFP
[1] = molecular target: FLAG-tagged Git1-Y9F-Y554 (rat) (UniProt Q9Z272)
[2] = molecular target: T1, FLAG-tagged Git1-Y554F (rat) (UniProt Q9Z272)
T1 sequence: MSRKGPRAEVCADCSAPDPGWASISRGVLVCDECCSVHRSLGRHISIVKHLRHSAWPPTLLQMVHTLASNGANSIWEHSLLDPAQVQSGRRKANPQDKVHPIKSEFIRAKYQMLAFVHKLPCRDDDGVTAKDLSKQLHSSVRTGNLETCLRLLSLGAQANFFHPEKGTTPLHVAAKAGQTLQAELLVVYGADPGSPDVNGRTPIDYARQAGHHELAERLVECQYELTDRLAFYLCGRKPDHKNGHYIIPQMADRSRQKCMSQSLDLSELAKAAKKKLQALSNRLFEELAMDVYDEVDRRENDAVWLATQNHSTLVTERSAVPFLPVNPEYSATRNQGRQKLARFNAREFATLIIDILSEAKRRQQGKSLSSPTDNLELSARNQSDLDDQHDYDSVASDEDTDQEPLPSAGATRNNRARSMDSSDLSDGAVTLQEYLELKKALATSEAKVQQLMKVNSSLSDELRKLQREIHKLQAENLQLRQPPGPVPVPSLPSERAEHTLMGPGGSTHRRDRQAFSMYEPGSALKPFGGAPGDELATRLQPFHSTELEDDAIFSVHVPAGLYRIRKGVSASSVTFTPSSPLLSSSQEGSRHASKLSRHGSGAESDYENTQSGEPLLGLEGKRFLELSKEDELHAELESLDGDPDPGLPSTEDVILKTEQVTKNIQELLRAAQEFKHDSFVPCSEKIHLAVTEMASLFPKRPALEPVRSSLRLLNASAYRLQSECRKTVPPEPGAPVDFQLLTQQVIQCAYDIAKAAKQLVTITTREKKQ

[3] = molecular target: T2, FLAG-tagged Git1 (WT) (rat) (UniProt Q9Z272)
T2 sequence: T1 sequence with F554Y

[4] = molecular target: T3, FLAG-tagged Git1-Y554D (rat) (UniProt Q9Z272)
T3 sequence: T1 sequence with F554D

binding [1]	binding [2]	binding [3]	binding [4]	Substance
binds	–	–	–	Myc-tagged Hic-5 (from UniProt Q62219 1-461)
binds	binds	binds	binds	Myc-tagged paxillin (from UniProt Q8VI36-2)
